Laboratory results: PubChem BioAssay AID504804 (Drosophila RNAi Screening Center, 2011)
Screen: 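dsRNAs that improve Kc cell survival under doxorubicin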 (primary screen). System: Drosophila Kc cells. Knock-down reagent: long dsRNA against Drosophila genes, 0.5 µg dsRNA per well. Timing: 96 h (48 h knock-down, then 48 h drug). Treatment: doxorubicin 5 µg/ml for 48 h, added 48 h after dsRNA. Detection: 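Luminescent ATP counts per replicate, not normalised, reflecting viable cells after 48 h dsRNA knock-down followed by 48 h of 5 µg/ml doxorubicin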. Scale: raw ATP luminescence: higher = more viable cells, protection from doxorubicin. Hit rule: 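Active when both duplicate wells lie at least 2 SD above the plate mean and protection is confirmed by rescreening and independent dsRNAs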.
The screen tested about 19,000 reagents; this is a random part of those with a known target gene and a result. In the full data, 47 (0.25%) were called active. 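Signals are raw, not normalised; exact z-scores behind calls not deposited; actives needed confirmation, so some wells reaching 2 SD are inactive.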 A number with no mark means an inactive call.

With ppk13 [DRSC02382], what was measured?
raw ATP luminescence, replicate 1: 50767; raw ATP luminescence, replicate 2: 52457

What is on record for CHMP2B [DRSC10436]?
raw ATP luminescence, replicate 1: 47923; raw ATP luminescence, replicate 2: 41540

Which result is listed for CG6962 [DRSC16153]?
raw ATP luminescence, replicate 1: 48247; raw ATP luminescence, replicate 2: 24540

What did the screen give for Oli [DRSC02866]?
raw ATP luminescence, replicate 1: 85930; raw ATP luminescence, replicate 2: 90207

Which result is listed for CG14377 [DRSC14837]?
raw ATP luminescence, replicate 1: 68510; raw ATP luminescence, replicate 2: 59270

How did the screen score Nrt [DRSC11237]?
raw ATP luminescence, replicate 1: 28900; raw ATP luminescence, replicate 2: 22897

What did the screen give for a [DRSC04667]?
raw ATP luminescence, replicate 1: 24213; raw ATP luminescence, replicate 2: 27430

What did the screen give for a [DRSC04668]?
raw ATP luminescence, replicate 1: 49377; raw ATP luminescence, replicate 2: 54953

With Acbp4 [DRSC11023], what does the deposit list?
raw ATP luminescence, replicate 1: 52723; raw ATP luminescence, replicate 2: 68197

Laid out differently: entries from further up
gene knocked down | dsRNA | raw ATP luminescence, replicate 1 | raw ATP luminescence, replicate 2
CHMP2B | DRSC10436 | 47923 | 41540
CG6962 | DRSC16153 | 48247 | 24540
Oli | DRSC02866 | 85930 | 90207
CG14377 | DRSC14837 | 68510 | 59270

Continued:
How did the screen score CG9119 [DRSC08620]?
raw ATP luminescence, replicate 1: 67870; raw ATP luminescence, replicate 2: 62377

Which result is listed for fzo [DRSC16954]?
raw ATP luminescence, replicate 1: 72610; raw ATP luminescence, replicate 2: 64190

For Ir75b [DRSC10189], how do the results read?
raw ATP luminescence, replicate 1: 85743; raw ATP luminescence, replicate 2: 61190

What is on record for Sur [DRSC03447]?
raw ATP luminescence, replicate 1: 80883; raw ATP luminescence, replicate 2: 63540

Which result is listed for Obp28a [DRSC03394]?
raw ATP luminescence, replicate 1: 42383; raw ATP luminescence, replicate 2: 27973

For mtd [DRSC12131], how do the results read?
raw ATP luminescence, replicate 1: 63190; raw ATP luminescence, replicate 2: 29320

How did the screen score mtd [DRSC12380]?
raw ATP luminescence, replicate 1: 65987; raw ATP luminescence, replicate 2: 28007

Which result is listed for mtd [DRSC12381]?
raw ATP luminescence, replicate 1: 60650; raw ATP luminescence, replicate 2: 59397

What did the screen give for Or82a [DRSC11996]?
raw ATP luminescence, replicate 1: 52293; raw ATP luminescence, replicate 2: 74527

With C901 [DRSC19351], what does the deposit list?
raw ATP luminescence, replicate 1: 3.65e5; raw ATP luminescence, replicate 2: 3.20e5

How did the screen score CG30376 [DRSC05086]?
raw ATP luminescence, replicate 1: 71627; raw ATP luminescence, replicate 2: 59013

With CG42564 [DRSC12518], how do the results read?
raw ATP luminescence, replicate 1: 60453; raw ATP luminescence, replicate 2: 60790

Which result is listed for CG31126 [DRSC14623]?
raw ATP luminescence, replicate 1: 60580; raw ATP luminescence, replicate 2: 43100

What did the screen give for CG16723 [DRSC15138]?
raw ATP luminescence, replicate 1: 63620; raw ATP luminescence, replicate 2: 46380

What is on record for CG6414 [DRSC18401]?
raw ATP luminescence, replicate 1: 25070; raw ATP luminescence, replicate 2: 36260

Which result is listed for Cdc6 [DRSC10563]?
raw ATP luminescence, replicate 1: 35460; raw ATP luminescence, replicate 2: 43097

With CG31998 [DRSC17138], what was measured?
raw ATP luminescence, replicate 1: 51200; raw ATP luminescence, replicate 2: 52990

What is on record for ms(2)34Fe [DRSC01905]?
raw ATP luminescence, replicate 1: 69043; raw ATP luminescence, replicate 2: 96027

With awd [DRSC16906], what does the deposit list?
raw ATP luminescence, replicate 1: 61900; raw ATP luminescence, replicate 2: 60970
